Values quoted from earlier work as cited in US20070179135A1 (priority 2006, published 2007).

Tested on: CB2 and CB1 receptors
Conditions: inhibition of cAMP production; cited from earlier work

SMILES | EC50CB2/EC50CB1 ratio
CCCCCCC(C)(C)c1cc(OC)c2c(c1)OC(C)(C)[C@@H]1CC=C(C)C[C@@H]21 [Example L759633] | > 1000
C=C1CC[C@@H]2[C@@H](C1)c1c(OC)cc(C(C)(C)CCCCCC)cc1OC2(C)C [Example L759656] | > 3000
